In the supplement of paper PMC12819154, “High-throughput peptide-centric local stability assay extends protein–ligand identification to membrane proteins, tissues and bacteria” (Nature Structural & Molecular Biology, 2025):
This is one part of the list. Most entries show no effect beyond the scatter of the controls.

Protein sequences, listed by entry. Tags and fused reporters are not part of them. Lines headed by an entry give the natural chain unless they say otherwise; changes in a name come on top.
UniProt Q99K90: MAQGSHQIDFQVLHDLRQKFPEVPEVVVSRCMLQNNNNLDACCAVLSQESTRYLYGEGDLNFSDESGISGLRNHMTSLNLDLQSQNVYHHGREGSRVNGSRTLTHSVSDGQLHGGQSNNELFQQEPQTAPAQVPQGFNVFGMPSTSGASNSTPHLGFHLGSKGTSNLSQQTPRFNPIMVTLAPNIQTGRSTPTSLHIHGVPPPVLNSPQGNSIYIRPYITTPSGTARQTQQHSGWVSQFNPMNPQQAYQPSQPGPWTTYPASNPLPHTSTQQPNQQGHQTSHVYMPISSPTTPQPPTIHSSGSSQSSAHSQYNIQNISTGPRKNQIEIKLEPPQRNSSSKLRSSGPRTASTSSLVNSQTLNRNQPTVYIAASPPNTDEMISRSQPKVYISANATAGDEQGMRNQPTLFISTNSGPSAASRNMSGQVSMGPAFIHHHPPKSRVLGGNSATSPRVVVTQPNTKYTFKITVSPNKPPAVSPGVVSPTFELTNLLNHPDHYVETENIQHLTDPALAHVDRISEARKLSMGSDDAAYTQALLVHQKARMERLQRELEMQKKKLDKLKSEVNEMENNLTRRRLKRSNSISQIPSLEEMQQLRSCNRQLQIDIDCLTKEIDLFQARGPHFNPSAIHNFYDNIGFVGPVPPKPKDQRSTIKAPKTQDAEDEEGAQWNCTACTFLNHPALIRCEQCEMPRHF
UniProt Q99JZ7: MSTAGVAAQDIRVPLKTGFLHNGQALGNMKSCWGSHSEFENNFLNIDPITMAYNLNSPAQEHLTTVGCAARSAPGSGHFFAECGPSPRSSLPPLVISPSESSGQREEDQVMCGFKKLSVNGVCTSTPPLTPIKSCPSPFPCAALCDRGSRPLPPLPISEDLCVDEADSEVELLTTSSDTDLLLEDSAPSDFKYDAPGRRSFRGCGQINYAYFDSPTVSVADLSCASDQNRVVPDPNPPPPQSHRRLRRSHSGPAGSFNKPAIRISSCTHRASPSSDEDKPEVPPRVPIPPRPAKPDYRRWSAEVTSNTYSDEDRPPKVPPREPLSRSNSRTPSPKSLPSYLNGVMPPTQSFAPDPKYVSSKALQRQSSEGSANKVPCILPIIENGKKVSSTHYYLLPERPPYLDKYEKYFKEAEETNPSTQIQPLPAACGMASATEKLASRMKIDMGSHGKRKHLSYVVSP
UniProt Q9CQ60: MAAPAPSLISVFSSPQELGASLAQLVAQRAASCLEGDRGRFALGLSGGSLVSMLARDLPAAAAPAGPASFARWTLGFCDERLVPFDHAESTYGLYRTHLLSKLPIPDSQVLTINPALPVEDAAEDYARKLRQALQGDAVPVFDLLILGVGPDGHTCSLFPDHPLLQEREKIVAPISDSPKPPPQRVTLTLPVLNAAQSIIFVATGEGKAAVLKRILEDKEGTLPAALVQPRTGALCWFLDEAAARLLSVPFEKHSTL
UniProt Q9CX00, whole entry: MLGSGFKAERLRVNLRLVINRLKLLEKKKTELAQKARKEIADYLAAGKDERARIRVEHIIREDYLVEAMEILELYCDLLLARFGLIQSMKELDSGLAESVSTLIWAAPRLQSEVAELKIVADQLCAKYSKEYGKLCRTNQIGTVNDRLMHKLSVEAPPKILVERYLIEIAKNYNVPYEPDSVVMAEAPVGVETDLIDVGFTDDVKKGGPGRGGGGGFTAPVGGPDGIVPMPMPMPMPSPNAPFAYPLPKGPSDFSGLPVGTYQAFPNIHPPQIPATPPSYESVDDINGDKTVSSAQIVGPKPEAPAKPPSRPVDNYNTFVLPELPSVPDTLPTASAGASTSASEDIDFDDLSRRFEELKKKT
UniProt Q9CSU0: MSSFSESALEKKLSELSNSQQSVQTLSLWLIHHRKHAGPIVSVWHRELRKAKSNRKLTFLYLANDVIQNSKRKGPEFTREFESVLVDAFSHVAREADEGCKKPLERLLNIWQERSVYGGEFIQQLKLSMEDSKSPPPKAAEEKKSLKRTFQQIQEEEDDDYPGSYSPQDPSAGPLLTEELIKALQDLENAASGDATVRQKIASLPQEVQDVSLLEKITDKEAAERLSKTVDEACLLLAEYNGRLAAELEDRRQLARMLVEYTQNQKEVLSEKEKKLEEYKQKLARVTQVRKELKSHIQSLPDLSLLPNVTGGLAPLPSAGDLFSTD
UniProt Q9CR51, whole entry: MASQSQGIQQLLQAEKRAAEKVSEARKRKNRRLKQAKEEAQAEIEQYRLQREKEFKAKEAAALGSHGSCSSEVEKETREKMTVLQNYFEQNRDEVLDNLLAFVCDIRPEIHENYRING
UniProt Q9CRB8: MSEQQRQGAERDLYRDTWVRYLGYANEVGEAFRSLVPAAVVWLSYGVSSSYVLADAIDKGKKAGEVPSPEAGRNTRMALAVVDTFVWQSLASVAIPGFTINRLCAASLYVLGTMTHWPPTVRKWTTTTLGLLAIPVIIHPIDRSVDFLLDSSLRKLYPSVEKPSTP
UniProt Q99MD9, whole entry: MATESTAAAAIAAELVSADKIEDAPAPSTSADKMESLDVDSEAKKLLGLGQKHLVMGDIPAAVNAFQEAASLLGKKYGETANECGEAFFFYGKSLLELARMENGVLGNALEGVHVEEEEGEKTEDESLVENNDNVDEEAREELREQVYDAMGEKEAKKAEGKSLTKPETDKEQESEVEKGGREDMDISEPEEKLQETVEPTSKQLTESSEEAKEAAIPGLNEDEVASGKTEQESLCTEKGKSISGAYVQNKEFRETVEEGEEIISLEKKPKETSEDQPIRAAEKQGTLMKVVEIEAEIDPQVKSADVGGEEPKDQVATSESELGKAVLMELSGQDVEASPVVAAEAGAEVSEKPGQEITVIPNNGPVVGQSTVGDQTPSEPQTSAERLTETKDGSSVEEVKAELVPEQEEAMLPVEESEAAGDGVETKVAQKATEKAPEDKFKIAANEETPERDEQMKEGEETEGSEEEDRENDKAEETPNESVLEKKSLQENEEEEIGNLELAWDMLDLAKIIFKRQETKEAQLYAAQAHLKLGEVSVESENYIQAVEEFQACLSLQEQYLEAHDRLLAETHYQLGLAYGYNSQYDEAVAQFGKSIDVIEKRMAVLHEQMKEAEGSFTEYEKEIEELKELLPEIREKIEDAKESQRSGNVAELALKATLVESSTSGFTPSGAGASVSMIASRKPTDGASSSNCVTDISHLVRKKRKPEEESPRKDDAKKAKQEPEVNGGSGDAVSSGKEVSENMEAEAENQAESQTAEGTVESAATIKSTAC
UniProt Q99NF1: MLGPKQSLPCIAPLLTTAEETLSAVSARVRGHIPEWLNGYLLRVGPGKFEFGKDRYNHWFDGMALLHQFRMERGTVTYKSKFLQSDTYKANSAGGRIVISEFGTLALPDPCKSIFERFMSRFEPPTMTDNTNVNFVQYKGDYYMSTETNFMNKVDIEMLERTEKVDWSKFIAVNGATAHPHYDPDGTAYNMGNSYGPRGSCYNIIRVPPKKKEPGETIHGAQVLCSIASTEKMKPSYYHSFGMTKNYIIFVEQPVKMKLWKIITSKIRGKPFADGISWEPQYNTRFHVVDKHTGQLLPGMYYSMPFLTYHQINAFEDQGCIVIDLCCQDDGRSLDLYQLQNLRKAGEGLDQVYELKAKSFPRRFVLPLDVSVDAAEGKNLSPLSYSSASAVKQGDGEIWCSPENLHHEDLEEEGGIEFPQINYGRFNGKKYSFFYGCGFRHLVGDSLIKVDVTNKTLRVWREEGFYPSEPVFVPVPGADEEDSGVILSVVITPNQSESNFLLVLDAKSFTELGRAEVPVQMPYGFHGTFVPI
UniProt Q99KS2: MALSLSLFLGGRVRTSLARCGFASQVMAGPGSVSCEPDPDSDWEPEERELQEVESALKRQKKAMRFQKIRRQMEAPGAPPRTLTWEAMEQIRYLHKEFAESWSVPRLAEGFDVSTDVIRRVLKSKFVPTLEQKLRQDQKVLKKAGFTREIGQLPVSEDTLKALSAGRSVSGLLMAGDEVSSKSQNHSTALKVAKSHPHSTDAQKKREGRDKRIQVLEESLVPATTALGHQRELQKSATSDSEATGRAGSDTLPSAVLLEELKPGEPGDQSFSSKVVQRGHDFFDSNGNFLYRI
UniProt Q99MB7: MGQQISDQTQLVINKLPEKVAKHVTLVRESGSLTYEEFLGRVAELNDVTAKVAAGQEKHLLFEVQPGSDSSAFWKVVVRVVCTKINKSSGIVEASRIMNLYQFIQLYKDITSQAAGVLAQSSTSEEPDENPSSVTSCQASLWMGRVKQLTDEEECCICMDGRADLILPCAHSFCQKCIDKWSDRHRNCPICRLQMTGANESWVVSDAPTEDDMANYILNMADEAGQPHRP
UniProt Q9CWV6: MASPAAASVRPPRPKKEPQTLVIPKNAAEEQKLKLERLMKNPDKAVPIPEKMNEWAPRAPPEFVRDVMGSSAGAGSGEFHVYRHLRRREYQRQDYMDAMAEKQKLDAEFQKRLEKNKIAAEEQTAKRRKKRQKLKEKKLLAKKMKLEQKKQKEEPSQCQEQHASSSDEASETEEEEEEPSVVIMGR
UniProt Q9CQI6: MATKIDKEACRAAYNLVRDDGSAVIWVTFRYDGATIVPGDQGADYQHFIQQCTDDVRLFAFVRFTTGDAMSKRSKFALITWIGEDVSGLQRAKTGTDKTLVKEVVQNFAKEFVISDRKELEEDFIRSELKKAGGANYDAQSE
UniProt Q9CQJ6: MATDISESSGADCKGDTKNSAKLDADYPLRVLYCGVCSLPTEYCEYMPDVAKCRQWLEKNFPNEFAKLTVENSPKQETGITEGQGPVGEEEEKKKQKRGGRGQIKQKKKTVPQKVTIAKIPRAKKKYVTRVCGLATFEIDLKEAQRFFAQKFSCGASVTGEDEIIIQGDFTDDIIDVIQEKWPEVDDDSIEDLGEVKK
UniProt Q9CR39: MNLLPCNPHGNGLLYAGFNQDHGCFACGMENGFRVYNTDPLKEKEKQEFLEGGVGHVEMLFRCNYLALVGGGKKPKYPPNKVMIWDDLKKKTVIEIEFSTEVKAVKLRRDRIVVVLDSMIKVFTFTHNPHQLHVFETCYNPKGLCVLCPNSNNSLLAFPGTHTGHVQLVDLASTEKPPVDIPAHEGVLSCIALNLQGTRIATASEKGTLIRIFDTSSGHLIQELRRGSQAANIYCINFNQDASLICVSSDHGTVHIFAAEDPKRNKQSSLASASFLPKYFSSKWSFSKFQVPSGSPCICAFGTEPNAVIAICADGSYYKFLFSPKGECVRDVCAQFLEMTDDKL
UniProt Q99KJ8, whole entry: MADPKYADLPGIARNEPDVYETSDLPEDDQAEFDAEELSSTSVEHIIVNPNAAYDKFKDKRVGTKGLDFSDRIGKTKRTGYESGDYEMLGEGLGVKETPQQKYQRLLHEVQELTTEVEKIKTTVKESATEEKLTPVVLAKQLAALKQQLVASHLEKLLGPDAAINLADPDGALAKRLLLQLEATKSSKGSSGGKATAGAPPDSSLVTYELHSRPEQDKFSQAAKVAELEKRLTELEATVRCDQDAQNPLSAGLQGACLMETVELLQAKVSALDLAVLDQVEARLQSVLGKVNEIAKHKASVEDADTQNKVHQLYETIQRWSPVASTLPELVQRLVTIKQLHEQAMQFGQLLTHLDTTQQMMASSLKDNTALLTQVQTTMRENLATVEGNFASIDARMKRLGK
UniProt Q9CR61: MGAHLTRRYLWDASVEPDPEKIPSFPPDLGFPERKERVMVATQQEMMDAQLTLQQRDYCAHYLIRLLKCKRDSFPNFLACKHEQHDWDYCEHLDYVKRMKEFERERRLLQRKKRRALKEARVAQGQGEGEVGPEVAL
UniProt Q99JH7: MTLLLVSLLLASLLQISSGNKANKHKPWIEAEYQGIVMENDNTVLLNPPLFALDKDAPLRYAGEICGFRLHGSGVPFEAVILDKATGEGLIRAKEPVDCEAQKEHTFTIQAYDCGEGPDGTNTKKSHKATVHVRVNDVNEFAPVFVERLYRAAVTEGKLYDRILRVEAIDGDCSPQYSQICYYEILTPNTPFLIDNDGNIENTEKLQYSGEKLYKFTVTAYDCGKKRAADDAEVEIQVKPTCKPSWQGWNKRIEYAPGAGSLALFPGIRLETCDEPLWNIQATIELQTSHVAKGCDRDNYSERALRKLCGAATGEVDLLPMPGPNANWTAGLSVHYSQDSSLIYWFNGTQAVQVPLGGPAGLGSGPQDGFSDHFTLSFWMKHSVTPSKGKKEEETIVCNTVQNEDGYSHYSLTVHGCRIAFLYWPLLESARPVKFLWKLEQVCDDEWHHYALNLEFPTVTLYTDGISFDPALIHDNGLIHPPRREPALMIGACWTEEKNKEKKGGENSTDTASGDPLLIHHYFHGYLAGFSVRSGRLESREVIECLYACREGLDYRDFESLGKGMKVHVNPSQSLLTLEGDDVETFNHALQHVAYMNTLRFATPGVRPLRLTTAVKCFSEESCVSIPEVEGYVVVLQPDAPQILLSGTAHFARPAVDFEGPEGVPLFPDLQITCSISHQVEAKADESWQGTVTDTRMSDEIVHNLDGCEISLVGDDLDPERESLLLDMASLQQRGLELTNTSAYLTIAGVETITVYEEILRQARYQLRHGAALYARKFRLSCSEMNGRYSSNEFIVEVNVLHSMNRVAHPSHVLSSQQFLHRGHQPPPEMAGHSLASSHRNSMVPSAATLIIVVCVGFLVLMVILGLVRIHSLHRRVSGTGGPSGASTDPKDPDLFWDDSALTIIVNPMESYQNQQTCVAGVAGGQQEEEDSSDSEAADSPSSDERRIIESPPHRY

The targets below were run with CN[C@@H]1C[C@H]2O[C@@](C)([C@@H]1OC)n1c3ccccc3c3c4c(c5c6ccccc6n2c5c31)C(=O)NC4 [staurosporine] (assay: log2 fold change of pooled soluble protein (PISA), ligand vs vehicle (log2 ratio); higher = more thermally stabilized). Conditions: ligand concentration: 20 uM; assay format: PISA pool 52.9/55.5/58.6 C.

Target	log2 fold change of pooled soluble protein
UniProt Q9CVB6	0.00556
UniProt Q9CWJ9	0.0287
UniProt Q99K90	0.186
UniProt Q99JZ7	-0.00175
UniProt Q9CQ60	-0.085
UniProt Q9CX00	-0.0547
UniProt Q9CSU0	0.0148
UniProt Q9CR51	0.226
UniProt Q9CRB8	-0.0671
UniProt Q99MD9	0.0475
UniProt Q99NF1	0.218
UniProt Q99M51	-0.0515
UniProt Q99KS2	-0.297
UniProt Q99MB7	-0.0142
UniProt Q9CWK8	-0.000395
UniProt Q9CQB2	0.0898
UniProt Q99M87	-0.292
UniProt Q9CWV6	0.148

Target	log2 fold change of pooled soluble protein
UniProt Q9CQI6	0.0575
UniProt Q9CQJ6	-0.113
UniProt Q9CWY9	0.239
UniProt Q9CWW6	-0.0587
UniProt Q99KH8	0.469
UniProt Q9CR39	-0.179
UniProt Q9CPT4	-0.0945
UniProt Q99KN9	0.1
UniProt Q99M04	0.0886
UniProt Q99KJ8	-0.032
UniProt Q99JY4	0.0564
UniProt Q9CR61	-0.202
UniProt Q99JH7	-0.0709
UniProt Q99K99	-0.00368
UniProt Q99L13	-0.12
UniProt Q9CR20	0.0603
UniProt Q9CQ75	-0.214
UniProt Q9CPW2	0.206

Random excerpt: 3 entries already listed
Target	log2 fold change of pooled soluble protein
UniProt Q9CR51	0.226
UniProt Q9CQI6	0.0575
UniProt Q9CR20	0.0603
